These are yes or no findings as the source states them, for the method shown. Binding seen in cells or lysates may run through a third protein. Some binding calls cover weakened binding; strength is not graded here.

The experiment deals with T1, tumor growth factor β (TGF-β) activated kinase 1 (TAK1) (mouse (endogenous in 3T3-L1)) (UniProt Q62073).
T1 sequence: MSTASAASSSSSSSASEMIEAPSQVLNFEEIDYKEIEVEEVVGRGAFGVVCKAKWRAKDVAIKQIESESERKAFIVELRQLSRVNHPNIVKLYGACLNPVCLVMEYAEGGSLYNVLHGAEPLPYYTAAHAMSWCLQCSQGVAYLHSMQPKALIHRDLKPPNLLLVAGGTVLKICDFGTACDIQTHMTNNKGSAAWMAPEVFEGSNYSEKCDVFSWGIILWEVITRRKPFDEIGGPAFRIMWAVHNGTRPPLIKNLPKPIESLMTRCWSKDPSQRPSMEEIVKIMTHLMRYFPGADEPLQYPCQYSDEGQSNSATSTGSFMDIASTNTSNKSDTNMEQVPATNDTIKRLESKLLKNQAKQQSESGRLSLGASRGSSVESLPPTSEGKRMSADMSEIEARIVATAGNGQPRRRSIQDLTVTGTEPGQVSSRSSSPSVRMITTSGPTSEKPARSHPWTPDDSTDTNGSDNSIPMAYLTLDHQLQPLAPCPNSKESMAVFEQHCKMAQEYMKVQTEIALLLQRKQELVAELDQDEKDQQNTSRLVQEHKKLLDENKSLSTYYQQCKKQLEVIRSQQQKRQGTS
Put plainly: co-IP; Universal Magnetic Co-IP kit (Active Motif); cytosolic fraction of 3T3-L1 adipocytes exposed to 250 μM palmitate with or without pretreatment with 50 μM EPA-Na; immune complexes analysed by western blotting; control mouse IgG. In general terms: In western blotting, separated proteins are transferred to a membrane and probed.

B1: TGF-β activated kinase 1 binding protein 1 (TAB1) (protein, UniProt Q8CF89 1-502)
chain: MAAQRRSLLQSEQQPSWTDDLPLCHLSGVGSASNRSYSADGKGTESHPPEDNWLKFRSENNCFLYGVFNGYDGNRVTNFVAQRLSAELLLGQLNTEHTEADVRRVLLQAFDVVERSFLESIDDALAEKASLQSQLPEGVPQHQLPPQYQKILERLKALEREISGGAMAVVAVLLNSKLYVANVGTNRALLCKSTVDGLQVTQLNMDHTTENEDELFRLSQLGLDAGKIKQMGVICGQESTRRIGDYKVKYGYTDIDLLSAAKSKPIIAEPEIHGAQPLDGVTGFLVLMSEGLYKALEAAHGPGQANQEIAAMIDTEFAKQTSLDAVAQAVVDRVKRIHSDTFASGGERAKFCPRHEDMTLLVRNFGYPLGEMSQPTPTPAPGGRVYPVSVPYSSAQSTSKTSVTLSLVMPSQGQMVNGSHSASTLDEATPTLTNQSPTLTLQSTNTHTQSSSSSSDGGLFRSRPAHSLPPGEDGRVEPYVDFAEFYRLWSVDHGEQSVMTAP
Turning to B1, the binding result was “binds”.

These data come from PMC5422876.
